Results are given in words; binding and its absence hold for the method and conditions named. Some binding calls cover weakened binding; strength is not graded here.
Target: plasminogen activator inhibitor-1 (human) (UniProt P05121)
Assay: SDS-PAGE of the tPA/PAI-1 complex with silver staining; recombinant PAI-1 mixed with IMD-4690 in PBS at 37°C for 5 min, then tPA added, 37°C for 5 min; 10% SDS-PAGE, silver staining; bands of the tPA/PAI-1 complex quantified by densitometry; both purified

Amino acid sequences for entries named in this document (tags omitted). Residues count along the entry.
UniProt P05121, residues 24-402: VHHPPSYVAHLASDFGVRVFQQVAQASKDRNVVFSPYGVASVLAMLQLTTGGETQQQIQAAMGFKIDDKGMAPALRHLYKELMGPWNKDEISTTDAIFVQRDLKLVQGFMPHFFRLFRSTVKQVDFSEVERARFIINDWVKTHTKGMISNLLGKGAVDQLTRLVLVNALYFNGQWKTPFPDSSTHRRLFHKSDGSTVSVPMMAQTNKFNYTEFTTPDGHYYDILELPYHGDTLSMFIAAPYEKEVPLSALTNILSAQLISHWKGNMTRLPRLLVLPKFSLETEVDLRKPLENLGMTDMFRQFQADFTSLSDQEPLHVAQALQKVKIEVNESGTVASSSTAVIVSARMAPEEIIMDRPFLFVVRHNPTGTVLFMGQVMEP
UniProt P00750, residues 36-562: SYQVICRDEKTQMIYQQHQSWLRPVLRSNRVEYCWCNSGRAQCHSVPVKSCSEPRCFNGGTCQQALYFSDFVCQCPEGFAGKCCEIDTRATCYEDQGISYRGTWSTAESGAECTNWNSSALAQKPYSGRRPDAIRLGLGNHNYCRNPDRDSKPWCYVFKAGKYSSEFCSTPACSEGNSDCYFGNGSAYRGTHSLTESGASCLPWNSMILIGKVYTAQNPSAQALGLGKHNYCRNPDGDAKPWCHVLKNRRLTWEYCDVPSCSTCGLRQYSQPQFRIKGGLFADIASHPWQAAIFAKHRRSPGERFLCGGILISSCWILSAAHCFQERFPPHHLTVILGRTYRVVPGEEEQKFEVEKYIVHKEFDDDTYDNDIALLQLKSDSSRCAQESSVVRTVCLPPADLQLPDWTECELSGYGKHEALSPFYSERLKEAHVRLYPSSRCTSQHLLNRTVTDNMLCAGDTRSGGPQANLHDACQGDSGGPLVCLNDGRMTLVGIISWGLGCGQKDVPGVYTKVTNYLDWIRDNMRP

binding: binds
Substance: tissue-type plasminogen activator (from UniProt P00750 36-562) (enzyme)

Reference: publication PMC4364779, “IMD-4690, a Novel Specific Inhibitor for Plasminogen Activator Inhibitor-1, Reduces Allergic Airway Remodeling in a Mouse Model of Chronic Asthma via Regulating Angiogenesis and Remodeling-Related Mediators” (PLoS ONE, 2015)
